This is an account of results in publication doi:10.1101/2021.02.09.430422.

Results are given in words; binding and its absence hold for the method and conditions named. In cells and extracts the contact can be indirect. Binding can be weak; no strength is given. Sequences can lack the tags named with a protein.

This assay has as its target T1, Nse5-3C-His(8) (S. cerevisiae) (UniProt Q03718).
T1 sequence: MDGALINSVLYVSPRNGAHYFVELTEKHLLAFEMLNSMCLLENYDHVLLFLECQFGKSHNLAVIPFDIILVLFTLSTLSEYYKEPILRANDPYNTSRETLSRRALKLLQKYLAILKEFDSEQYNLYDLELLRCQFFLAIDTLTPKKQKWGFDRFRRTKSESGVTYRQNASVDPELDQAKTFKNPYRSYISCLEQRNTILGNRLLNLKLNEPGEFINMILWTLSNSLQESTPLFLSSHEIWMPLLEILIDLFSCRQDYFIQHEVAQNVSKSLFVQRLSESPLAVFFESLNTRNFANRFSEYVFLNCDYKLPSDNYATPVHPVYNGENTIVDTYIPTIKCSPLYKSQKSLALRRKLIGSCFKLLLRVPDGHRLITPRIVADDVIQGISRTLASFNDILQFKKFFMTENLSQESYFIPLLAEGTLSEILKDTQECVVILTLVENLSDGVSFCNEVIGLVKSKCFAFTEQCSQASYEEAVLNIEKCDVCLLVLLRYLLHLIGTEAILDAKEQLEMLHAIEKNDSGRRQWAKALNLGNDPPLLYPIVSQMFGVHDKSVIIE
Kind of assay: co-purification after co-expression.

As for Nse6 (S. cerevisiae), the binding entry is listed as “binds”.
